Legend:
[1] = Peptides detectable in urine; format: in vivo, rat; details: for Presence in urine: high salt, urine overloaded by a factor of 4, C-18 HPLC, binding assay
[2] = Plasma proUgn by quantitative western blot; format: in vivo, rat; details: endogenous

B1: prouroguanylin (protein, UniProt P70668 22-106, looked up)
pro-form: VYIKYHGFQVQLESVKKLNELEEKQMSDPQQQKSGLLPDVCYNPALPLDLQPVCASQEAASTFKALRTIATDECELCINVACTGC
modifications: pro-form
notes: Recombinant rat proUgn, Ironwood Pharmaceuticals; also endogenous propeptide in plasma
For B1, the Presence in urine [1] was “not present in urine at detectable levels”, the “Presence of intact proUgn in rat urine” value ([1]; western blot, normal vs five-sixths renal ablation) was “detectable in rat urine only after experimentally induced kidney failure” and the “Effect of dietary salt on plasma proUgn” value ([2]; 3 AM, normal, 5 days low salt, 1, 2 or 5 days high salt) was “strikingly independent of salt intake”. For the same molecule, the “Nocturnal plasma proUgn higher than diurnal” value ([2]; NS diet, P < 0.05) was 30–40% and the “Effect of fasting on plasma proUgn” value ([2]; standard chow vs 12–24 h fast) was “indistinguishable from those in animals that had been fasted”.

B2: proguanylin (protein, UniProt P28902 24-115, looked up)
pro-form: VQDGDLSFPLESVKQLKHLREVQEPTLMSHKKFALRLPKPVAPELCSQSAFPEALRPLCEKPNAEEILQRLEAIAQDPNTCEICAYAACTGC
modifications: pro-form
notes: purified recombinant proGn
In the case of B2, the Presence in urine [1] is reported as “not present in urine at detectable levels”.

— article PMC4873633, “Dietary salt regulates uroguanylin expression and signaling activity in the kidney, but not in the intestine” (Physiological Reports, 2016)
